Where a chain is given by its changes, count along the chain named. No constants are given. Whether binding was seen depends on the method and setting. Some entries that bind do so weakly or less than the wild type. Values belong to the binder of their own block, whether it stands above or below them.
Biological target: human CD19 protein (ELISA antigen) (human) (UniProt P15391)
Assay: ELISA on human CD19 protein

The chains behind the UniProt entries cited, without tags or fusion partners. Residues count along the entry.
UniProt P15391, residues 20-291: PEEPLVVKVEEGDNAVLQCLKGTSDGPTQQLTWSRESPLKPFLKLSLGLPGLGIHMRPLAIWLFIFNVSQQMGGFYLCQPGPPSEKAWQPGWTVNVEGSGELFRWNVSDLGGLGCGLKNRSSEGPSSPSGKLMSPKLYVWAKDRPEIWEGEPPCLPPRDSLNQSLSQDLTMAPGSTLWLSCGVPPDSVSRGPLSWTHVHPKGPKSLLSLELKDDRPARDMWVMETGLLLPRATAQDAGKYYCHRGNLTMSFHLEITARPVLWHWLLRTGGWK

binding: binds
B1: anti-CD19 heavy chain-only antibody (UniAb) clone ID 370083 (antibody, V domains shown)
VH: QVQLVESGGGLVKPGGSLRLSCAASGFTFSDYYMSWIRQAPGKGLEWVSYMSSSGSTIYYADSVKGRFTISRDNAKNSLYLQMTSLRAEDTAVYYCARGGIAATGTWGQGTLVTVSS
notes: Heavy chain-only antibody with no light chain, tested as purified UniAb and detected with anti-human IgG; Only the VH is tied to the clone

binding: binds
B2: anti-CD19 heavy chain-only antibody (UniAb) clone ID 370034 (antibody, V domains shown)
VH: B1 VH with N77K, T84N, T104A
notes: Heavy chain-only antibody with no light chain, tested as purified UniAb and detected with anti-human IgG; Only the VH is tied to the clone; also called HCAb 370034

Source: US20240042032A1 (TENEOBIO, published 2024)
